Reference: article PMC5687663
Results are given in words; binding and its absence hold for the method and conditions named. In cells and extracts the contact can be indirect. Some binding calls cover weakened binding; strength is not graded here.

By UniProt entry, the sequences of proteins in these tests, tags left out.
UniProt P19139: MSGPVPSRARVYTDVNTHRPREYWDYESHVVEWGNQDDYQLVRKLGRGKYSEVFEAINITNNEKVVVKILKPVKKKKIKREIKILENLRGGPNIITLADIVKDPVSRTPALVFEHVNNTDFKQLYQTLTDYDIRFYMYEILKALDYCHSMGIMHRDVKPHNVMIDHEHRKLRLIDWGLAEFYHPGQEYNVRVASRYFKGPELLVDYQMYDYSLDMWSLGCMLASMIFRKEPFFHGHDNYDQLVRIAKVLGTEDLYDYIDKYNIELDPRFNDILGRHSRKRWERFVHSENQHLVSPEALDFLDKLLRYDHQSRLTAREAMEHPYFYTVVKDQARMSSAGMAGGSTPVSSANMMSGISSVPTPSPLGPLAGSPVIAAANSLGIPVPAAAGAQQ
UniProt Q91V26: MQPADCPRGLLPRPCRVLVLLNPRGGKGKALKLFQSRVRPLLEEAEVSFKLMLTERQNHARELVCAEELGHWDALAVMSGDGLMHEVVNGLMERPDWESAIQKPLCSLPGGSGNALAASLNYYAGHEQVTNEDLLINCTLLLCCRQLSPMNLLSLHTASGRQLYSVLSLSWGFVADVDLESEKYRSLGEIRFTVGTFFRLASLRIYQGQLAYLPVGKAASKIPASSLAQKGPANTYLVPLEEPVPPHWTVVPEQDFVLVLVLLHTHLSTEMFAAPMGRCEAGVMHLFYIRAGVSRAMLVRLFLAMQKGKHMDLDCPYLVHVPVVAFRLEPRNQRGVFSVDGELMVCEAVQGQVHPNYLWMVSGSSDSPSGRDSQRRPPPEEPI

Target: Casein kinase 2α subunit (CK2α) (rat (endogenous in primary GMCs of Sprague-Dawley rats)) (UniProt P19139)
Assay: co-IP; lysate of rat GMCs (500 μg protein) cultured in normal glucose or treated with high glucose for various times; 2 μg antibody against CK2α or SphK1 (or IgG) overnight at 4°C, agarose A/G beads, western blot; both orientations

binding: binds
Substance: Sphingosine kinase 1 (SphK1) (from UniProt Q91V26 1-383) (enzyme)
